Experimental data as given in US4182897A, “Amino- or guanidino-phenylpropionic acid derivatives” (Torii & Co., Ltd., priority 1977, dated 1980).
Where a name gives a salt, the structure may show the parent alone. At least one structure is not confirmed: it was looked up by name or label, or the drawing left a doubt.

By UniProt entry, the sequences of proteins in these tests, tags left out. Residues count along the entry.
UniProt P00747, 97-580 partner limits assumed: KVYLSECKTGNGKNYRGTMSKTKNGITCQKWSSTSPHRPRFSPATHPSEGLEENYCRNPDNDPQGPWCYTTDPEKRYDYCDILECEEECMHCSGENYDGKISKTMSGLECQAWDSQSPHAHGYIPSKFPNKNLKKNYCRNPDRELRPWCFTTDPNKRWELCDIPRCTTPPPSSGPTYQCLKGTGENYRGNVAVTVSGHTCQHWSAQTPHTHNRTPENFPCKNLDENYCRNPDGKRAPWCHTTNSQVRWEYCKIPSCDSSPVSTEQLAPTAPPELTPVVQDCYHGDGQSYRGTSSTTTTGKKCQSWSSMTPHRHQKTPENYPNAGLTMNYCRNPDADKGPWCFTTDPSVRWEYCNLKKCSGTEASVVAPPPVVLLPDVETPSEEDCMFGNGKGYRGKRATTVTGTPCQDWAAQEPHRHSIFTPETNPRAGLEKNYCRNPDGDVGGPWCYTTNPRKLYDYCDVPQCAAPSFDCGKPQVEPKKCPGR
UniProt P00747, 581-810 limits assumed: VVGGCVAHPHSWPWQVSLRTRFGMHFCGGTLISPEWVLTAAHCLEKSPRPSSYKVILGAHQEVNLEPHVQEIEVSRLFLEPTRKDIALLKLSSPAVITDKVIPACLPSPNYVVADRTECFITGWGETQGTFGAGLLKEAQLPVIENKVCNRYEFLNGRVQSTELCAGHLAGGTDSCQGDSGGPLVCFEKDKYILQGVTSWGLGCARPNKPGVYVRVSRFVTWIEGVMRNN
UniProt P03952, 20-390 partner limits assumed: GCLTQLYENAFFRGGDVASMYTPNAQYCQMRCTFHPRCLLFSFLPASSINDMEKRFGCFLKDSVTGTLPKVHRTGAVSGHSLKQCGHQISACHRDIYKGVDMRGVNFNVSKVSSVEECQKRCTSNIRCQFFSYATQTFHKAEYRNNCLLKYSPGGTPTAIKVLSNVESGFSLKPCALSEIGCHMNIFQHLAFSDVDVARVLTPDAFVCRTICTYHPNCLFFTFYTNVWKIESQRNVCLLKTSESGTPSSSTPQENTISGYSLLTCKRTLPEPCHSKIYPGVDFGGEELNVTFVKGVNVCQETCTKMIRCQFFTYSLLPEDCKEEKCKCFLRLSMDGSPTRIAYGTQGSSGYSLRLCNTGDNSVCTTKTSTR
UniProt P03952, 391-638 limits assumed: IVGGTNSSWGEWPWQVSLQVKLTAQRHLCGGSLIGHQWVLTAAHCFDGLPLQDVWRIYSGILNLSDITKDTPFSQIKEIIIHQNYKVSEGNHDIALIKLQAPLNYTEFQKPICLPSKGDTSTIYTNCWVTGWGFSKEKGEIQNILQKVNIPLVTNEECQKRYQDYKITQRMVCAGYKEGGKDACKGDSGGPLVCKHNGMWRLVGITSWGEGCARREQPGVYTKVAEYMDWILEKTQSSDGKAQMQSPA

Columns and labels:
Format in all cases: biochemical
Conditions in all cases: in vitro
Human Cl Esterase = molecular target: T1, Human Cl Esterase (Homo sapiens, UniProt P09871); assay: Inhibitory effect on ester-hydrolyzing activity of human Cl esterase (ATEe substrate)
T1 sequence (P09871 438-688 limits assumed): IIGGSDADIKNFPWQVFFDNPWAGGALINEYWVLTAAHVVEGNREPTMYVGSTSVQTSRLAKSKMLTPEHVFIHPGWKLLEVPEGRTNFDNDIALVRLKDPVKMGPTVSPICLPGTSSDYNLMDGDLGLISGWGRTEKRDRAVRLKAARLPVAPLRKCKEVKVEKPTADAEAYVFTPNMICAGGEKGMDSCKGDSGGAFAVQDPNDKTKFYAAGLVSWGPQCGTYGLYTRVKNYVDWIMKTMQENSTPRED
T1 sequence (P09871 16-437 partner limits assumed): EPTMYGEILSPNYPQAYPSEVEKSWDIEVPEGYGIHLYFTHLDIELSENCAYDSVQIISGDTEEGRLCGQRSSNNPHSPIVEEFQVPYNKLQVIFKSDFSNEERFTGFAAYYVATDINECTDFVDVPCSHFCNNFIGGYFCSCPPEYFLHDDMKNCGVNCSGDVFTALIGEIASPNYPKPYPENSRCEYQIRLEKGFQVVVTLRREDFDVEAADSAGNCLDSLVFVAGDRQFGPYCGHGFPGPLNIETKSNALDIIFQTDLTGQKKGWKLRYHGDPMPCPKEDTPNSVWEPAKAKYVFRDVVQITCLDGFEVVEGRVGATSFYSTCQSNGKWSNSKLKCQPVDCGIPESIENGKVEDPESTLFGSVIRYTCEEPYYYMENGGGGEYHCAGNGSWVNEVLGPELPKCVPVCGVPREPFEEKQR

Human Plasmin = Human Plasmin (Homo sapiens, UniProt P00747); assay: Inhibitory effect on ester-hydrolyzing activity of human plasmin (TAMe substrate)
Description: (A) Determination of Enzyme-inhibitory Activity: The enzyme-inhibitory activities in vitro of the compounds of this invention were measured by the following procedure according to the method of M. Muramatsu et al. [[…]. Makino, Y. Hayashi and S. Fujii: J. […] (2) Inhibitory Effect on Ester-hydrolyzing Activity of Human Plasmin It was measured by using 0.1 ml of plasmin (generated by activation of plasminogen with streptokinase) and TAMe as substrate following the method described in (1).

Bovine Thrombin = Bovine Thrombin (Bos taurus, UniProt P00735); assay: Inhibitory effect on ester-hydrolyzing activity of bovine thrombin (TAMe substrate)
Description: (4) Inhibitory Effect on Ester-Hydrolyzing Activity of Bovine Thrombin
It was measured by using 0.4 ml of bovine thrombin […], 0.02 M sodium phosphate buffer solution (pH 7.4) and TAMe as substrate following the method described in (1).

Human Plasma Kallikrein = Human Plasma Kallikrein (Homo sapiens, UniProt P03952); assay: Inhibitory effect on ester-hydrolyzing activity of human plasma kallikrein (TAMe substrate)
Description: (A) Determination of Enzyme-inhibitory Activity: The enzyme-inhibitory activities in vitro of the compounds of this invention were measured by the following procedure according to the method of M. Muramatsu et al. [[…]. Makino, Y. Hayashi and S. Fujii: J.

CCC(Cc1cccc(N)c1)C(=O)Oc1ccc(OC)cc1 (stereo not drawn) [Compound No. 4, p-Methoxyphenyl α-ethyl-β-(m-aminophenyl)-propionate hydrochloride]
no inhibitory action: inhibitory action on Cl esterase (Human Cl Esterase) | inhibitory action on plasmin (Human Plasmin) | inhibitory action on thrombin (Bovine Thrombin) | inhibitory action on kallikrein (Human Plasma Kallikrein)
